Results taken from PubChem BioAssay AID1347075 (National Center for Advancing Translational Sciences (NCATS), 2019).
Out of some 400,000 compounds screened, about 5,500 (1.4%) were called active. This list was built around the results that the source calls inconclusive (neither active nor inactive); the mix of calls is not that of the screen. Calls follow the shape of the dose curve; as a rule, active = well fitted cell-killing curve with a large enough effect; inconclusive = small, poorly fitted or top-dose-only effect, or effect the other way; inactive = flat fitted curve, though single readings scatter. A potency beside an inconclusive call is a rough fit, not a confirmed value.

assay: qHTS assay for MDR1-selective chemotherapeutics: Primary screen using the parental adenocarcinoma cell KB-3-1; conditions: KB-3-1 viability, CellTiter-Glo ATP luminescence, 72 h; series mostly up to 46.1 µM; also: nearly all actives have a fitted effect of over 60% in size
How it was run: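 Cytotoxicity in the drug-sensitive parental line KB-3-1 was scored as loss of CellTiter-Glo luminescence following 72 h incubation with compound. Values come from curve fitting of normalized concentration-response data.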
Potency is read from the fitted curve at half-maximal effect.

Compound | Potency
CC(C)(C)n1nnnc1C(c1cccs1)N(Cc1cccnc1)CC1CCCO1 (stereo unspecified) | inconclusive: 18.4 µM [cytotoxic, partial curve, poor fit]
O=C(Nc1ccc(Cl)cc1)c1cc(S(=O)(=O)N2CCOCC2)cs1 | inconclusive: 29.1 µM [cytotoxic, single point]
O=C(C1CCCN(S(=O)(=O)c2cccc3nonc23)C1)N1CCN(c2ccccc2Cl)CC1 (stereo unspecified) | inconclusive: 29.1 µM [cytotoxic, single point]
CCOC(=O)c1ccc(Cl)c(NC(=O)c2ccc(-c3ccccc3)cc2)c1 | inconclusive: 29.1 µM [rising, single point]
O=C1CCCN1CCCNc1ccc2nnc(CCC(=O)N3CCN(c4ccccc4)CC3)n2n1 | inactive
Cc1ccc(-c2nnc(N3CCC(C(N)=O)CC3)s2)cc1 | inconclusive: 10.3 µM [rising, partial curve]
CC(=O)NC(CC(=O)NNC(=O)c1cc2ccccc2cc1O)c1ccccc1 (stereo unspecified) | inconclusive: 16.4 µM [cytotoxic, partial curve]
COc1ccccc1OCCNc1nc2c(c(=O)n(C)c(=O)n2C)n1C | inactive
Cc1cccc(C)c1NC(=O)CNC(=O)c1ccc(N2CCCC2=O)cc1 | inactive
O=S(=O)(Nc1nc2ccccc2nc1Nc1ccc(N2CCOCC2)cc1)c1cc(Cl)ccc1Cl | inconclusive: 23.1 µM [cytotoxic, single point]
CCCCn1c(N)c(N(CC(C)C)C(=O)C2CCN(C(=O)c3ccc(Cl)cc3)CC2)c(=O)[nH]c1=O | inconclusive: 25.9 µM [rising, single point]
CCOCCCNC(=O)c1ccc2c(c1)ncn2-c1cccc(C)c1 | inconclusive: 18.4 µM [cytotoxic, single point]
O=C(NCCO)C(=O)NCC1OCCCN1S(=O)(=O)c1cc(F)ccc1F (stereo unspecified) | inactive
NC(=O)N/N=C/c1cccc(C(F)(F)F)c1 | inconclusive: 5.17 µM [cytotoxic, partial curve]
COc1ccc(NC(=O)CNc2ccccc2C(C)=O)cc1S(=O)(=O)N1CCOCC1 | inconclusive: 3.66 µM [cytotoxic, full curve, poor fit]
O=C(Nc1ccc(-c2nnc(-c3ccccc3)o2)cc1)C1CCCO1 (stereo unspecified) | inconclusive: 2.91 µM [rising, partial curve, poor fit]
Cn1c(C(=O)N2CCCc3ccccc32)cc2sccc21 | inconclusive: 9.2 µM [cytotoxic, partial curve]
CCOC(=O)c1c(NC(=O)COc2ccccc2F)sc2c1CC(C)(C)NC2(C)C | inconclusive: 29.1 µM [cytotoxic, single point]
CCN(CC)c1ccc(-n2c(C)c(C(C)=O)c(C(C)=O)c2C)cc1 | inconclusive: 20.6 µM [cytotoxic, single point]
CCOC(=O)c1scc(-c2ccccc2)c1S(=O)(=O)Nc1ccc(N(C)C)cc1 | inactive
COC(=O)CC1COc2ccccc2N1S(=O)(=O)c1ccc(OC)cc1 (stereo unspecified) | active: 18.4 µM

By substructure: the entries above with four or more nitrogen atoms (seven)
Compound | Potency
CC(C)(C)n1nnnc1C(c1cccs1)N(Cc1cccnc1)CC1CCCO1 (stereo unspecified) | inconclusive: 18.4 µM [cytotoxic, partial curve, poor fit]
O=C(C1CCCN(S(=O)(=O)c2cccc3nonc23)C1)N1CCN(c2ccccc2Cl)CC1 (stereo unspecified) | inconclusive: 29.1 µM [cytotoxic, single point]
O=C1CCCN1CCCNc1ccc2nnc(CCC(=O)N3CCN(c4ccccc4)CC3)n2n1 | inactive
Cc1ccc(-c2nnc(N3CCC(C(N)=O)CC3)s2)cc1 | inconclusive: 10.3 µM [rising, partial curve]
COc1ccccc1OCCNc1nc2c(c(=O)n(C)c(=O)n2C)n1C | inactive
O=S(=O)(Nc1nc2ccccc2nc1Nc1ccc(N2CCOCC2)cc1)c1cc(Cl)ccc1Cl | inconclusive: 23.1 µM [cytotoxic, single point]
CCCCn1c(N)c(N(CC(C)C)C(=O)C2CCN(C(=O)c3ccc(Cl)cc3)CC2)c(=O)[nH]c1=O | inconclusive: 25.9 µM [rising, single point]

Later entries

Compound | Potency
Cc1cccn2c(=O)c3cc(C#N)c(=NC(=O)c4ccco4)n(Cc4ccco4)c3nc12 | inconclusive: 16.4 µM [rising, partial curve, poor fit]
CCCCC(=O)Nc1ccc(Cl)cc1F | inconclusive: 23.1 µM [cytotoxic, single point]
Cc1cc(C)c(S(=O)(=O)c2ccccc2C)c(OCC(C)(C)C)n1 | inconclusive: 16.4 µM [cytotoxic, single point]
CC(C)Cn1c(N)c(C(=O)CSc2ccc3c(c2)OCCO3)c(=O)n(C)c1=O | inconclusive: 0.82 µM [cytotoxic, full curve]
CCOC(=O)Nc1nc(-c2ccccc2)c(C(=O)c2ccc(Cl)cc2)s1 | active: 1.16 µM
C=CCC[C@H](Cc1ccc(F)cc1)C(=O)OC[C@@H](Cc1c[nH]c2ccccc12)NC(=O)[C@@H](CC=C)CC(=O)N(CCO)Cc1ccccc1 | inconclusive: 29.1 µM [cytotoxic, single point]
CCCCCCNc1nc2c(c(=O)n(C)c(=O)n2C)n1Cc1cccc(C)c1 | inconclusive: 2.06 µM [cytotoxic, partial curve, poor fit]
CC(C)C(c1nnnn1C(C)(C)C)N1CCC(Cc2ccccc2)CC1 (stereo unspecified) | inactive
COc1ccc(-c2nc(C(N)=O)c3[nH]c(=O)n(-c4cccc(Cl)c4)c3n2)cc1OC | inconclusive: 9.2 µM [rising, partial curve, poor fit]
CCCC(=O)NC(c1ccc(C)cc1)c1ccc2cccnc2c1O (stereo unspecified) | inconclusive: 4.61 µM [cytotoxic, full curve, poor fit]
O=C(Nc1ccc(S(=O)(=O)N2CCOCC2)cc1)C1CCN(S(=O)(=O)c2ccccc2)CC1 | inconclusive: 29.1 µM [cytotoxic, single point]
OCC1(Cc2cccc(C(F)(F)F)c2)CCN(Cc2cc3ccccc3o2)CC1 | inconclusive: 20.6 µM [cytotoxic, single point]
C=CCNc1nc(NC2CCN(C)CC2)c2cc(OC)c(OC)cc2n1 | inconclusive: 18.4 µM [cytotoxic, single point]
CCC(C)NC(=O)CCc1c(C)nc2c(c(C)nn2-c2ccccc2)c1C (stereo unspecified) | inconclusive: 18.4 µM [cytotoxic, partial curve]
CCc1ccc2nc(NC(=O)c3cc(C)on3)sc2c1 | active: 7.31 µM
O=C(NCc1ccccc1Cl)C1CCN(S(=O)(=O)Cc2ccccc2)CC1 | inactive
O=C(Nc1ccc(F)c(Cl)c1)C1CCN(C(=O)c2ccc(F)cc2)CC1 | inactive
COc1cc(NC(=O)c2ccco2)c(OC)cc1NC(=O)CSc1nnc(-c2cccs2)n1C | inconclusive: 23.1 µM [rising, single point]
CNS(=O)(=O)Cc1ccc2[nH]cc(CCN(C)C)c2c1 | inconclusive: 29.1 µM [cytotoxic, single point]
CCOc1cc(-c2cc(-c3ccc(N)cc3)nc(N)c2C#N)ccc1O | inconclusive: 18.4 µM [cytotoxic, single point]
